Measurements taken from patent US9826741B2, “Tetrazolinone compound and application thereof” (SUMITOMO CHEMICAL COMPANY, LIMITED, priority 2014, dated 2017).
Some entries share one result that the patent states for a list of compounds.

Columns and labels:
[1] = system: wheat rust fungus (Puccinia recondita); assay: Test Example 9: wheat rust, foliar spray, preventive; assay type: in vivo; details: 200 ppm foliar spray on wheat (SHIROGANE); inoculated after 5 days; assessed after 1 day dark high humidity + 8 days
[2] = system: rice blast fungus (Magnaporthe grisea); assay type: in vivo; details: 200 ppm foliar spray on rice (NIHONBARE); 6 days in contact with infected rice seedling under high humidity

| SMILES | area of lesion on the treated plant relative to that on an untreated plant [1] | lesion areas on the treated plant with respect to the lesion area on the non-treated plant [2] |
| --- | --- | --- |
| CCn1ccc(-c2ccc(SCc3c(C)cccc3-n3nnn(C)c3=O)c(C)c2)n1 [present compound 7, 1-{3-methyl-2-[2-methyl-4-(1-ethyl-1H-pyrazol-3-yl)-phenylthiomethyl]-phenyl}-4-methyl-1,4-dihydrotetrazol-5-one] | ≤ 30% |  |
| CCn1cc(-c2ccc(SCc3c(C)cccc3-n3nnn(C)c3=O)c(C)c2)cn1 [present compound 9, 1-{3-methyl-2-[2-methyl-4-(1-ethyl-1H-pyrazol-4-yl)-phenylthiomethyl]-phenyl}-4-methyl-1,4-dihydrotetrazol-5-one] | ≤ 30% |  |
| Cc1cc(-n2cccn2)ccc1SCc1c(C)cccc1-n1nnn(C)c1=O [present compound 11, 1-{3-methyl-2-[2-methyl-4-(pyrazol-1-yl)-phenylthiomethyl]-phenyl}-4-methyl-1,4-dihydrotetrazol-5-one] | ≤ 30% | ≤ 30% |
| Cc1cc(-n2ncc(C)c2C)ccc1SCc1c(C)cccc1-n1nnn(C)c1=O [present compound 19] | ≤ 30% | ≤ 30% |
| Cc1cc(-n2ccc(C(C)(C)C)n2)ccc1SCc1c(C)cccc1-n1nnn(C)c1=O [present compound 5, 1-{3-methyl-2-[2-methyl-4-(3-t-butyl-pyrazol-1-yl)-phenylthiomethyl]-phenyl}-4-methyl-1,4-dihydrotetrazol-5-one] |  | ≤ 30% |
| Cc1cc(-c2cc(C)n(C)n2)ccc1SCc1c(C)cccc1-n1nnn(C)c1=O [present compound 6, 1-{3-methyl-2-[2-methyl-4-(1,5-dimethyl-1H-pyrazol-3-yl)-phenylthiomethyl]-phenyl}-4-methyl-1,4-dihydrotetrazol-5-one] | ≤ 30% |  |
| Cc1cc(C)n(-c2ccc(SCc3c(C)cccc3-n3nnn(C)c3=O)c(C)c2)n1 [present compound 2, 1-{3-Methyl-2-[2-Methyl-4-(3,5-Dimethyl-Pyrazol-1-yl)-Phenylthiomethyl]-phenyl}-4-methyl-1,4-dihydrotetrazol-5-one] | ≤ 30% | ≤ 30% |
| Cc1ccn(-c2ccc(SCc3c(C)cccc3-n3nnn(C)c3=O)c(C)c2)n1 [present compound 16] | ≤ 30% |  |
| Cc1cc(-n2ccc(C(F)(F)F)n2)ccc1SCc1c(C)cccc1-n1nnn(C)c1=O [present compound 15] | ≤ 30% |  |
| Cc1cc(-n2nc(C)c(C)c2C)ccc1SCc1c(C)cccc1-n1nnn(C)c1=O [present compound 4, 1-{3-methyl-2-[2-methyl-4-(3,4,5-trimethyl-pyrazol-1-yl)-phenylthiomethyl]-phenyl}-4-methyl-1,4-dihydrotetrazol-5-one] | ≤ 30% | ≤ 30% |
| Cc1cc(-c2cnn(C(C)C)c2)ccc1SCc1c(C)cccc1-n1nnn(C)c1=O [present compound 8, 1-{3-methyl-2-[2-methyl-4-(1-isopropyl-1H-pyrazol-4-yl)-phenylthiomethyl]-phenyl}-4-methyl-1,4-dihydrotetrazol-5-one] | ≤ 30% |  |
| Cc1cc(-n2cccn2)c(C)cc1SCc1c(C)cccc1-n1nnn(C)c1=O [present compound 12, 1-{3-methyl-2-[2,5-dimethyl-4-(pyrazol-1-yl)-phenylthiomethyl]-phenyl}-4-methyl-1,4-dihydrotetrazol-5-one] | ≤ 30% |  |
| Cc1cc(-n2nccc2C)ccc1SCc1c(C)cccc1-n1nnn(C)c1=O [present compound 17] | ≤ 30% | ≤ 30% |
| Cc1cnn(-c2ccc(SCc3c(C)cccc3-n3nnn(C)c3=O)c(C)c2)c1 [present compound 14] | ≤ 30% |  |
| Cc1cc(-c2nn(C)c(Cl)c2C)ccc1SCc1c(C)cccc1-n1nnn(C)c1=O [present compound 1, 1-{3-methyl-2-[2-methyl-4-(1,4-dimethyl-5-chloro-1H-pyrazol-3-yl)-phenylthiomethyl]-phenyl}-4-methyl-1,4-dihydrotetrazol-5-one] | ≤ 30% | ≤ 30% |
| Cc1cc(C)n(-c2cc(C)c(SCc3c(C)cccc3-n3nnn(C)c3=O)cc2C)n1 [present compound 13, 1-{3-methyl-2-[2,5-dimethyl-4-(3,5-dimethyl-pyrazol-1-yl)-phenylthiomethyl]-phenyl}-4-methyl-1,4-dihydrotetrazol-5-one] | ≤ 30% |  |
| Cc1cccc(-n2nnn(C)c2=O)c1CSc1ccc(-n2nccc2C)cc1Cl [present compound 3, 1-{3-methyl-2-[2-chloro-4-(5-methyl-pyrazol-1-yl)-phenylthiomethyl]-phenyl}-4-methyl-1,4-dihydro tetrazol-5-one] | ≤ 30% |  |
